Experimental data as given in US20170191038A1, “TGFß SIGNALING INDEPENDENT NAÏVE INDUCED PLURIPOTENT STEM CELLS, METHODS OF MAKING AND USE” (HONG GUAN Ltd., priority 2014, published 2017).
At least one structure is not confirmed: it was looked up by name or label, or the drawing left a doubt.

What was measured:
[1] = system: Rhesus monkey naïve iPSCs; assay: Signaling analysis of rhesus monkey naïve iPSCs (TRA-1-81-positive dome-shaped colonies); assay type: cell-based, rhesus monkey (Macaca mulatta); conditions: optimized conversion conditions (2i/LIF+bFGF+SP600125+SB203580); different concentrations; 5 days
Method: Rhesus monkey primed iPSCs were maintained as described (Liu H et al., 2008). […] The tested signaling modulators were SU5402 (2 μM; Tocris), SB431542 (10 μM; Tocris), Stattic (1 μM; Tocris) and TGF-β1 (2 ng/ml, Peprotech). After treatment for 5 days, cells were fixed and immunostained for TRA-1-81.
To detect ALP activity the cells were washed with phosphate-buffered saline three times and stained with BCIP/NBT (Promega) for 15 min. For immunofluorescence, the primary antibodies included those against SSEA-1 (1:50, Chemicon), SSEA-4 (1:20, Santa Cruz Biotechnology), TRA-1-60 (1:50, Santa Cruz Biotechnology), TRA-1-81 (1:50, Santa Cruz Biotechnology), NANOG (1:100, R&D Systems), TBX3 (1:200, Abcam), H3K27me3 (1:200, Millipore), GATA4 (1:200, Santa Cruz Biotechnology), OCT4 (1:200, Abcam) and SOX2 (1:200, Santa Cruz Biotechnology). The secondary antibodies were rhodamine-labeled donkey anti-mouse IgG (1:100, Santa Cruz Biotechnology), rhodamine-labeled donkey anti-rabbit IgG (1:100, Santa Cruz Biotechnology), rhodamine-labeled goat anti-mouse IgM (1:100, Santa Cruz Biotechnology) and rhodamine-labeled donkey anti-goat IgG (1:100, Santa Cruz Biotechnology). DAPI (Roche Applied Science) was used for nuclear staining.

[2] = system: Rhesus monkey primed iPSCs; assay: Conversion of rhesus monkey primed iPSCs to naive iPSCs (conversion condition optimization, TRA-1-81/TBX3 double-positive dome-shaped colonies); assay type: cell-based, rhesus monkey (Macaca mulatta); conditions: each inhibitor alone (10 μM) in 2i/LIF+bFGF conversion conditions
Method: Rhesus monkey primed iPSCs were dissociated into single cells by accutase and reseeded on feeder cells. The converting medium with 4 ng/ml bFGF (R&D Systems), 10 ng/ml human LIF (Millipore), CHIR99021 (3 μM; Stemgent) and PD0325901 (0.5 μM; Stemgent) was changed daily. At approximately day 7 to day 10, dome-shaped colonies were selected and transferred onto fresh feeder cells. Traditional 2i/LIF conditions—10 ng/ml human LIF (Millipore), CHIR99021 (3 μM; Stemgent) and PD0325901 (0.5 μM; Stemgent) were also tested and served as negative control. • (c) Conversion Condition Optimization for Rhesus Monkey Naïve iPSCs
Rhesus monkey primed iPSCs were dissociated into single cells by accutase and reseeded on feeder cells. The basal culture medium with 4 ng/ml bFGF (R&D Systems), 10 ng/ml human LIF (Millipore), CHIR99021 (3 μM; Stemgent) and PD0325901 (0.5 μM; Stemgent) was changed daily. The small molecules tested for culture condition optimization were SB203580 (10 μM; Tocris), SP600125 (10 μM; Tocris), Y27632 (10 μM; Tocris) and GÖ6983 (5 μM; Tocris). After treatment for 8 days, cells were fixed and immunostained for TRA-1-81.
To detect ALP activity the cells were washed with phosphate-buffered saline three times and stained with BCIP/NBT (Promega) for 15 min. […]

Row | SMILES | naïve conversion process (TRA-1-81 positive dome-shaped colonies, words) [1] | conversion efficiency of naive PSCs [2]
1 | O=c1cc(N2CCOCC2)oc2c(-c3ccccc3)cccc12 [Ly294002] | severely block the naïve conversion process in a concentration-dependent manner | –
2 | Oc1c2ccccc2c2c3c(cccc13)N=N2 [SP600125, Anthra[1-9-cd]pyrazol-6(2H)-one] | – | greatly improved the conversion efficiency
